The target of this assay is Argonaute 2 (human (endogenous in MKN-45)) (UniProt Q9UKV8). As to the kind of experiment: co-IP; immunoprecipitation with an AGO2 antibody on protein A-Sepharose beads, western blot; MKN-45 cells stably transfected with mock or miR-584-3p precursor.

Protein sequences, listed by entry. Tags and fused reporters are not part of them.
UniProt Q9UKV8: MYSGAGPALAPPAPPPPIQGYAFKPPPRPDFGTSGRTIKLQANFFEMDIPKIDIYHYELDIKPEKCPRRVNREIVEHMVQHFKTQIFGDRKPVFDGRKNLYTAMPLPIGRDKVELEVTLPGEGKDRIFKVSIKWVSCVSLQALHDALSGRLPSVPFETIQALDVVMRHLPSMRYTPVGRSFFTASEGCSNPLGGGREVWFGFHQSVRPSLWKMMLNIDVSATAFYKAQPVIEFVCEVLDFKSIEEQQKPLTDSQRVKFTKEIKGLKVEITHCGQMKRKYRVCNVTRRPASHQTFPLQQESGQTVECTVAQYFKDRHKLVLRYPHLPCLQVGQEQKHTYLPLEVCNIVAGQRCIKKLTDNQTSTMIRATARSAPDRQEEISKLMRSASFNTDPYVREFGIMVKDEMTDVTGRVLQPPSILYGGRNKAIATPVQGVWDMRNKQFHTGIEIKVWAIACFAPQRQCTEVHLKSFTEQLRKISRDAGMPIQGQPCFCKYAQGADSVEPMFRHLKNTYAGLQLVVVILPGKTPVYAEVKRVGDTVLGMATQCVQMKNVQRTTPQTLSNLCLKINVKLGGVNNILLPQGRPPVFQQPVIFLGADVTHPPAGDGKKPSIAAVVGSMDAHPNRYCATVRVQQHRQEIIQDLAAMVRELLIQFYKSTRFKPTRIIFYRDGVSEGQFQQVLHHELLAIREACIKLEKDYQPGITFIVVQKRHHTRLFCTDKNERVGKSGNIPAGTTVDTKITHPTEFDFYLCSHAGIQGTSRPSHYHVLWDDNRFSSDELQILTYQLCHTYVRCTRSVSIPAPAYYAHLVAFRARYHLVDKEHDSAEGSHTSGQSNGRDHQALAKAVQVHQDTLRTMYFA
UniProt P25490: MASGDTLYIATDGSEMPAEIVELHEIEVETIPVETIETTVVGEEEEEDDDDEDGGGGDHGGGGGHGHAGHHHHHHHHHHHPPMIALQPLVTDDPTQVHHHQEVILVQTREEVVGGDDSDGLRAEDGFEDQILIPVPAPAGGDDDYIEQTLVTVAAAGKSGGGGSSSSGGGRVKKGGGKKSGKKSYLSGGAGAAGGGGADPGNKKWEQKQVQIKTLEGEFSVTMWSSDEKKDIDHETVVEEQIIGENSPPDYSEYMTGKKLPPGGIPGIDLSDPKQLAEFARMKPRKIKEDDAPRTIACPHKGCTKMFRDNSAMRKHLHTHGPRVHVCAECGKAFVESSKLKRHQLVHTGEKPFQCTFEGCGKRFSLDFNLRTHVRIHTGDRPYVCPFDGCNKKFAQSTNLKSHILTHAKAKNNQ
UniProt Q96KQ7: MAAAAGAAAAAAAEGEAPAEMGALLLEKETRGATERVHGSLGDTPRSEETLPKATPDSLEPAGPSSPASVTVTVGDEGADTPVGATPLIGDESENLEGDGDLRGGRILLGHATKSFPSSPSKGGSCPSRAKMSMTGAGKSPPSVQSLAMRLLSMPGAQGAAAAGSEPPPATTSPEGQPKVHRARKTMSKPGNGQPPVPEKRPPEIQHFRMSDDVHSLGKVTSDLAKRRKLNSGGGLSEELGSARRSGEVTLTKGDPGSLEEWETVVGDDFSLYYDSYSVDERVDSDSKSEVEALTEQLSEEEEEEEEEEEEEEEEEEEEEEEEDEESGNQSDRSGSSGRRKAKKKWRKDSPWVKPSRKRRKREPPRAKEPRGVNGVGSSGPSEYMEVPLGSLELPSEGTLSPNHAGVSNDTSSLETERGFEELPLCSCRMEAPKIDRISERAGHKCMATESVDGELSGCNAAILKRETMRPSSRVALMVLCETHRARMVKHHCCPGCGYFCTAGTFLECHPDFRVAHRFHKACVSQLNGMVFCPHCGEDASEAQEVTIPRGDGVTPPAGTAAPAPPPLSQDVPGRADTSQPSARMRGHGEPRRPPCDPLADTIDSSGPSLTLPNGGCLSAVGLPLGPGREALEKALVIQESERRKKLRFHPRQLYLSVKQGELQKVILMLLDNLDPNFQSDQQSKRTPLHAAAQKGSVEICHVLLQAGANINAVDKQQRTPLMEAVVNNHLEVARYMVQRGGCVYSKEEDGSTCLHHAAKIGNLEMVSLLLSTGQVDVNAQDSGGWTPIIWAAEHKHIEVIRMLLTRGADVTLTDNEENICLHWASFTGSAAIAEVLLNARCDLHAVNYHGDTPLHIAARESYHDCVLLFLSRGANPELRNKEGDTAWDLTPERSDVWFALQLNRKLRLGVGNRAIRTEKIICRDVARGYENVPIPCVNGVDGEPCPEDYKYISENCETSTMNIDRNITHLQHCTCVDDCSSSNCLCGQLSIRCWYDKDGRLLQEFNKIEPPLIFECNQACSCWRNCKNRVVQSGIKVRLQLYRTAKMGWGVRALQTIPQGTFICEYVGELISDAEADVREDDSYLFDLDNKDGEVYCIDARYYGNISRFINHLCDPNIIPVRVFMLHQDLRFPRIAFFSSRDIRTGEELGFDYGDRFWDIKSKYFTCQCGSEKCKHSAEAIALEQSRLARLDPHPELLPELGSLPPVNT

These are yes or no findings as the source states them, for the method shown. In cells and extracts the contact can be indirect. Some entries that bind do so weakly or less than the wild type.

Take Yin Yang 1 (from UniProt P25490 1-414): the binding result is reported as “no binding”.
Turning to “euchromatic histone lysine methyltransferase 2 (from UniProt Q96KQ7 1-1210)”, the binding result was “binds”.

The record behind these values is article PMC5566321.
